The record followed here is article PMC12748767.

Protein sequences, listed by entry. Tags and fused reporters are not part of them.
UniProt P60174: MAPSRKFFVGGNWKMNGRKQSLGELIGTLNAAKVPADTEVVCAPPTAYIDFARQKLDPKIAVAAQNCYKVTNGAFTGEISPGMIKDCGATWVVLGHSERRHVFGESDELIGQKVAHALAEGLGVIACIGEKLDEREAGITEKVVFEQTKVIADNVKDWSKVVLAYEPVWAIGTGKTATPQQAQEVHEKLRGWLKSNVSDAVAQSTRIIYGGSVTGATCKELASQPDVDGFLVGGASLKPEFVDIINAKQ

No constants are given. Whether binding was seen depends on the method and setting. In cells and extracts the contact can be indirect. Here binding means that the protein was enriched with, or labelled near, the bait; the list need not be complete.

This experiment has as its target Triosephosphate isomerase 1 (TPI1) (human (endogenous in J82 and UMUC3)) (UniProt P60174). As to the kind of experiment: affinity purification with mass spectrometry; immunoprecipitation of TPI1 from cell lysate (IP Lysis Buffer, antibody or control IgG overnight at 4 °C, protein A/G magnetic beads), MS detection; cells not given.

As to Beclin-1 (from UniProt Q14457 1-450), the binding entry is “binds”.
